Test results published in patent publication US9649279B2, “Fortified micronutrient salt formulations” (Massachusetts Institute of Technology, priority 2013, dated 2017).
At least one read-out could not be matched to a standard name with certainty.

Experiment: Vitamin C stability and recovery under cooking conditions
Format: physicochemical
Conditions: for % Recovery after 100° C.: EPO 200 mg
Protocol: Formulations were tested for factors that increase stability and leakage characteristics for particular nutrients.
Ascorbic acid can become oxidixed and hydrolyzed, resulting in reduced bioactivity. Compounds specifically identified as stabilizing ascorbic acid, trans-Ferulic Acid (FA), Caffeic Acid (CA), and p-Coumaric Acid (p-CA), can be used in the particles and matrix to stabilize vitamin C.
To increase the loading of the ascorbic acid in the formulations, large amounts of ascorbic acid need to be added in the initial formulation process. However, the use of large amount of ascorbic acid can lower the pH of the water during the formulation, and this low pH condition can also dissolve the polymer we use to make the microparticles. To avoid this low pH issue, sodium ascorbate, which has equivalent bioactivity as ascorbic acid, can be used. Over 60 wt % of sodium ascorbate (NaAA) can be recovered after 2 hrs heating at 100° C.

Compound | % Recovery after 100° C. (NaAA 50 mg) [%] | % Recovery after 100° C. (NaAA 100 mg) [%] | % Recovery after 100° C. (NaAA 200 mg) [%] | stability and recovery after cooking (1 mg/ml versus 78 μg/ml ascorbic acid) | recovery after cooking at 100° C. (increased concentration of the polymer coating) | recovery after 100° C. for two hours (trans-Ferulic Acid (FA) and p-Coumaric Acid (p-CA) included in the formulation)
O=C1O[C@H]([C@@H](O)CO)C([O-])=C1O.[Na+] [NaAA, sodium ascorbate] | 72.01 ± 1.15 | 59.90 ± 1.53 | 66.22 ± 1.37 |  |  | 
O=C1O[C@H]([C@@H](O)CO)C(O)=C1O [Vitamin C, Ascorbic acid] |  |  |  | greatly increased | significantly increased | significantly increased
